The nature of the series: Drug loading of polyimide tubes.

Turning to `CN(C)c1ccc(C(=C2C=CC(=[N+](C)C)C=C2)c2ccc(N(C)C)cc2)cc1` [crystal violet], the “average amount loaded per unit length” value (powder manually loaded, polyimide tubes diameter 1000 microns) worked out at 5.31±0.28 milligrams/cm. `C[C@]12C=CC(=O)C=C1CC[C@@H]1[C@@H]2[C@@H](O)C[C@@]2(C)[C@H]1CC[C@]2(O)C(=O)CO` [prednisolone]: where the note is “ethanolic suspension, positive pressure, polyimide tube diameter 125 microns”, the “amount of drug loaded per unit length of the tube” value is 5.68±0.65 micrograms/mm. The “net amount of drug loaded into the tubes” value (ethanolic suspension, positive pressure, polyimide tube diameter 125 microns, TGA-7) is 87.58±11.70 micrograms.
